Measurements taken from patent US20180303952A1.
These are yes or no findings as the source states them, for the method shown. Some results given as binding are weak or reduced against the parent protein; the word gives no strength.

By UniProt entry, the sequences of proteins in these tests, tags left out. Where a name states a change or a piece, a line headed by the entry shows the natural chain unless it says otherwise. Residues count along the entry.
UniProt P35613, residues 141-321: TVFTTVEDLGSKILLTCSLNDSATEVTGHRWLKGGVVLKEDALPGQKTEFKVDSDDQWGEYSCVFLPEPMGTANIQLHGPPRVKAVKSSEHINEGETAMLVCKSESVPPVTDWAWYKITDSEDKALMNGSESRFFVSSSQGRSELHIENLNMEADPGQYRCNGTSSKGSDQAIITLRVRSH

Target: recombinant human CD147-Fc chimeric protein (glycosylated) (human) (UniProt P35613)
Assay: ELISA on adsorbed CD147-Fc

B1: humanized anti-human CD147 monoclonal antibody hu 3A11 Lc1/Hc1 (antibody, V domains shown)
VH: EVQLVESGGGLVQPGGSLRLSCAASGFTFSNYWMDWVRQAPGKGLEWVGEIRLKSYNYATHYAASVKGRFTISRDDSKNSVYLQMNSLKTEDTAVYYCTAAGTDYWGQGTLVTVSS
VL: DIQMTQSPSSLSASVGDRVTITCRASQSVRTDVGWYQQKPGKAPKLLIYYSSNRYTGVPSRFSGSGSGTDFTLTISSLQPEDFATYYCQQDYSSPYTFGQGTKLEIK
- binding: binds
